According to the supplement of paper PMC10735217:
Where a name gives a salt, the structure may show the parent alone. The list shows a part of the results. Repeats in this data set agree poorly, so a single value says little.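 The human kidney-derived cells carry a stably integrated construct of eight TEAD-binding elements driving luciferase, read by luminescence in a drug-repurposing library screen. A compound counts as a hit when its signal is more than five robust Z scores above the plate mean.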

Tested on: HEK293A TEAD-LUC reporter
Experiment: TEAD-luciferase reporter activity (YAP activation), robust Z score vs plate; higher = stronger YAP/TEAD activation
Conditions: 24 h

Row | Compound | TEAD-luciferase reporter activity (compound concentration: 200 nM) | TEAD-luciferase reporter activity (compound concentration: 2 uM) | TEAD-luciferase reporter activity (compound concentration: 10 uM)
1 | CC(=O)OCC(=O)[C@@]1(OC(C)=O)[C@@H](C)C[C@H]2[C@@H]3C[C@H](F)C4=CC(=O)C=C[C@]4(C)[C@@]3(F)[C@@H](O)C[C@@]21C [diflorasone diacetate] | inactive: -0.463 | inactive: -0.811 | inactive: 1.19
2 | Cc1cc(C(=O)N(C)[C@H](CN2CC(O)C2)C(C)C)ccc1F | inactive: -0.61 | inactive: 0.364 | inactive: -1.61
3 | N#CC1=C(N)Oc2cc(O)ccc2C1c1cccc(F)c1 (configuration not stated) | inactive: 3.3 | inactive: -0.259 | inactive: -1.47
4 | C=CCc1cc(-c2cc(CC=C)c(O)c(CN(CC)CC)c2)cc(CN(CC)CC)c1O | inactive: -2.6 | inactive: -0.264 | inactive: 1.32
5 | N=C(c1ccc(C(=O)Nc2ccc3c(c2)CC(CC(=O)O)CO3)cc1)N1CCOCC1 (configuration not stated) | inactive: -2.49 | inactive: -0.34 | inactive: 3.25
6 | CN(CC1CC1)C1CCc2ccccc21 (configuration not stated) | inactive: 0.355 |  | inactive: 0.465
7 | O=C(O)COC(=O)Cc1ccccc1Nc1c(Cl)cccc1Cl | inactive: 2.58 |  | inactive: 0.251
8 | O=C(O)COC(=O)Cc1ccccc1Nc1c(Cl)cccc1Cl [Aceclofenac] |  | inactive: -0.203 | 
9 | O=C1C[C@@H](c2ccc(O)cc2)Oc2cc(O)cc(O)c21 | inactive: 0.152 |  | inactive: 0.546
10 | O=C1C[C@@H](c2ccc(O)cc2)Oc2cc(O)cc(O)c21 [Naringenin] |  | inactive: -1.49 | 
11 | Oc1cccc(c1)/C/1=C/2\C=CC(=N2)/C(=c\2/cc/c(=C(/c3[nH]c(/C(=C/4\N=C1C=C4)/c1cccc(c1)O)cc3)\c1cccc(c1)O)/[nH]2)/c1cccc(c1)O [meta-HK7] | inactive: -0.842 |  | inactive: 0.113
12 | O=C1NCCN1C1CCN(CC[C@H]2COc3ccccc3O2)CC1 [azaloxan] | inactive: 1.07 | inactive: -0.126 | inactive: -1.91
13 | [O-][n+]1ccc(CC(c2ccc(C(O)(C(F)(F)F)C(F)(F)F)cc2)c2ccc(OC(F)F)c(OC(F)F)c2)cc1 (configuration not stated) | inactive: -0.402 | inactive: -0.417 | inactive: 2.27
14 | CCc1[nH]c(O)nc1C(=O)c1ccncc1 [piroximone] | inactive: -2.13 | inactive: 0.318 | inactive: -0.299
15 | C[N+](C)(C)CCOC(Cc1ccccc1)c1ccccc1 (configuration not stated) | inactive: -1.49 | inactive: -0.949 | inactive: 1.15
16 | O=c1[nH]c2c(O)ccc(CCNCCS(=O)(=O)CCCOCCc3ccccc3)c2s1 [Sibenadet hydrochloride] | inactive: -1.09 | inactive: -1.43 | inactive: -1.53
17 | O=C(O)Cc1ccc2c(c1)SCc1ccccc1C2=O | inactive: -1.5 | inactive: 0.0507 | inactive: -0.941
18 | CCc1nc(C2CC2)c(C(N)=O)n1Cc1ccc2oc(-c3ccccc3NS(=O)(=O)C(F)(F)F)c(Br)c2c1 | inactive: -0.0517 | inactive: -1.67 | inactive: -1.33
19 | c1ccc(C23NC(=Nc4nc5ccccc5[nH]4)NC2(c2ccccn2)NC(=Nc2nc4ccccc4[nH]2)N3)nc1 (configuration not stated) | inactive: -1.87 | inactive: 0.61 | inactive: -0.17
20 | COc1cccc(CS(=O)c2nc3ccncc3[nH]2)c1 (configuration not stated) | inactive: -0.212 | inactive: -0.0702 | inactive: 0.376

A second format for part of the listing above.
Row	Compound	TEAD-luciferase reporter activity (compound concentration: 200 nM)	TEAD-luciferase reporter activity (compound concentration: 2 uM)	TEAD-luciferase reporter activity (compound concentration: 10 uM)
2	Cc1cc(C(=O)N(C)[C@H](CN2CC(O)C2)C(C)C)ccc1F	inactive: -0.61	inactive: 0.364	inactive: -1.61
3	N#CC1=C(N)Oc2cc(O)ccc2C1c1cccc(F)c1 (configuration not stated)	inactive: 3.3	inactive: -0.259	inactive: -1.47
4	C=CCc1cc(-c2cc(CC=C)c(O)c(CN(CC)CC)c2)cc(CN(CC)CC)c1O	inactive: -2.6	inactive: -0.264	inactive: 1.32
5	N=C(c1ccc(C(=O)Nc2ccc3c(c2)CC(CC(=O)O)CO3)cc1)N1CCOCC1 (configuration not stated)	inactive: -2.49	inactive: -0.34	inactive: 3.25
6	CN(CC1CC1)C1CCc2ccccc21 (configuration not stated)	inactive: 0.355		inactive: 0.465
7	O=C(O)COC(=O)Cc1ccccc1Nc1c(Cl)cccc1Cl	inactive: 2.58		inactive: 0.251
8	O=C(O)COC(=O)Cc1ccccc1Nc1c(Cl)cccc1Cl [Aceclofenac]		inactive: -0.203	
9	O=C1C[C@@H](c2ccc(O)cc2)Oc2cc(O)cc(O)c21	inactive: 0.152		inactive: 0.546
10	O=C1C[C@@H](c2ccc(O)cc2)Oc2cc(O)cc(O)c21 [Naringenin]		inactive: -1.49	
11	Oc1cccc(c1)/C/1=C/2\C=CC(=N2)/C(=c\2/cc/c(=C(/c3[nH]c(/C(=C/4\N=C1C=C4)/c1cccc(c1)O)cc3)\c1cccc(c1)O)/[nH]2)/c1cccc(c1)O [meta-HK7]	inactive: -0.842		inactive: 0.113
12	O=C1NCCN1C1CCN(CC[C@H]2COc3ccccc3O2)CC1 [azaloxan]	inactive: 1.07	inactive: -0.126	inactive: -1.91
13	[O-][n+]1ccc(CC(c2ccc(C(O)(C(F)(F)F)C(F)(F)F)cc2)c2ccc(OC(F)F)c(OC(F)F)c2)cc1 (configuration not stated)	inactive: -0.402	inactive: -0.417	inactive: 2.27
14	CCc1[nH]c(O)nc1C(=O)c1ccncc1 [piroximone]	inactive: -2.13	inactive: 0.318	inactive: -0.299
15	C[N+](C)(C)CCOC(Cc1ccccc1)c1ccccc1 (configuration not stated)	inactive: -1.49	inactive: -0.949	inactive: 1.15
16	O=c1[nH]c2c(O)ccc(CCNCCS(=O)(=O)CCCOCCc3ccccc3)c2s1 [Sibenadet hydrochloride]	inactive: -1.09	inactive: -1.43	inactive: -1.53
17	O=C(O)Cc1ccc2c(c1)SCc1ccccc1C2=O	inactive: -1.5	inactive: 0.0507	inactive: -0.941
18	CCc1nc(C2CC2)c(C(N)=O)n1Cc1ccc2oc(-c3ccccc3NS(=O)(=O)C(F)(F)F)c(Br)c2c1	inactive: -0.0517	inactive: -1.67	inactive: -1.33
19	c1ccc(C23NC(=Nc4nc5ccccc5[nH]4)NC2(c2ccccn2)NC(=Nc2nc4ccccc4[nH]2)N3)nc1 (configuration not stated)	inactive: -1.87	inactive: 0.61	inactive: -0.17

More records follow:

Row | Compound | TEAD-luciferase reporter activity (compound concentration: 200 nM) | TEAD-luciferase reporter activity (compound concentration: 2 uM) | TEAD-luciferase reporter activity (compound concentration: 10 uM)
21 | CCCCCCCCCCCCCCCCCCCCCCCCCCCCO | active: 5.56 | inactive: -2.51 | inactive: 0.758
22 | CCS(=O)(=O)c1ccc(F)cc1 | inactive: -1.86 | inactive: -0.938 | inactive: -0.275
23 | Cc1ccc(-c2cccc(CN3CCCC3C(=O)NCc3cccc(C(F)(F)F)c3)c2)cc1Cl (configuration not stated) | inactive: -1.52 |  | inactive: 0.474
24 | CC(=O)NCC1CC(c2ccc(C3=CCN(C(C)=O)CC3)cc2)=NO1 (configuration not stated) | inactive: 0.273 | inactive: -0.898 | inactive: -1
25 | CO[C@H]1/C=C/O[C@@]2(C)Oc3c(C)c(O)c4c(=O)c(c5oc6cc(N7CCN(CC(C)C)CC7)cc(O)c6nc-5c4c3C2=O)NC(=O)/C(C)=C\C=C\[C@H](C)[C@H](O)[C@@H](C)[C@@H](O)[C@@H](C)[C@H](OC(C)=O)[C@@H]1C [Rifalazil] | inactive: -1.43 | inactive: -0.703 | inactive: -0.525
26 | O=C(c1ccccc1Cl)N1CCC2(CC1)Cc1ccccc1NC2=O | inactive: -2.46 |  | inactive: 1.17
27 | Cc1cc(-c2cnn3c(NC[C@H]4C[C@@](C)(O)C4)cc(Oc4cccnc4)nc23)ccc1C(=O)NC1CC1 | inactive: -0.254 | inactive: -0.598 | inactive: 0.0467
28 | CO/N=C1/C=C(C#Cc2cccc(C)n2)CCC1 | inactive: 2.43 | inactive: 1.73 | inactive: 1.65
29 | CN1CCN(c2c(F)cc3c(=O)c(C(=O)O)cn4c3c2SCC4)CC1 [rufloxacin monohydrochloride] | inactive: -1.33 |  | inactive: -2.45
30 | CN1CCN(c2c(F)cc3c(=O)c(C(=O)O)cn4c3c2SCC4)CC1 [rufloxacin] |  | inactive: -2.05 | 
31 | COc1ccc2cc(-c3cc(-c4cc(Cl)cc(Cl)c4)nn3[C@@H](C)c3ccc(C(=O)NCCC(=O)O)cc3)ccc2c1 | inactive: -0.609 | inactive: -1.17 | inactive: 1.9
32 | CC(C)NCC(O)COc1ccc(CC(=O)OCCC23CC4CC(CC(C4)C2)C3)cc1 (configuration not stated) [Adaprolol] | inactive: -1.02 | inactive: -0.537 | active: 6.66
33 | C[C@@H]1CC(=O)c2c(ccc3c2C(=O)c2cccc(O)c2C3=O)C1 [Ochromyci] | inactive: -1.4 | inactive: -0.256 | inactive: -0.512
34 | C[C@H](O)C(=O)O [ammonium lactate] | inactive: 2.58 | inactive: -1.74 | inactive: 1.43
35 | O=C1CCc2ccc(OCCCCN3CCN(c4cccc5ccccc45)CC3)nc2N1 | inactive: -0.998 | inactive: -0.285 | inactive: 0.443
36 | COc1ccc2[nH]c(SCc3ncc(C)c(OC)c3C)nc2c1 [Ufiprazole] | inactive: -1.41 | inactive: -0.162 | inactive: 4.55
37 | CCCC(CCC)c1ccc(OCc2ccc(-c3csc(CN(CC(=O)O)Cc4ncc(C(C)(C)C)s4)n3)cc2)cc1 | inactive: 0.801 | inactive: 1.05 | inactive: 4.16
38 | COc1ccc(F)cc1-c1cc2c(N=O)c(O)[nH]c2c2c1CCN(C)C2 | inactive: 0.508 | inactive: -0.959 | inactive: 1.88
39 | [Cl][Ru-2]([Cl])([Cl])([Cl])([Cl])[Cl] | inactive: 2.86 |  | inactive: 4.35
40 | CCCc1nc(C(C)(C)O)c(C(=O)OCc2oc(=O)oc2C)n1-c1ccc(-c2ccccc2-c2nnn[nH]2)cc1 | inactive: -0.792 | inactive: -0.762 | inactive: -0.457

Row | Compound | TEAD-luciferase reporter activity (compound concentration: 200 nM) | TEAD-luciferase reporter activity (compound concentration: 2 uM) | TEAD-luciferase reporter activity (compound concentration: 10 uM)
41 | CCCCC(=O)C1c2cccc(O)c2C(=O)c2c(O)cccc21 | inactive: 0.393 | inactive: -1.22 | inactive: 0.668
42 | N#Cc1ccc(Oc2ccc3c(c2)COB3O)cc1C#N | inactive: -0.422 | inactive: -0.79 | inactive: -0.408
43 | CCCCCC(=O)N[C@@H](Cc1ccc(O)cc1)C(=O)OC | inactive: -1.88 | inactive: 0.0137 | inactive: -2.31
44 | Nc1ncnc2c1ncn2[C@@H]1C[C@H](O)[C@H](CO)O1 [beta-L-dA] | inactive: -0.94 | inactive: -1.24 | inactive: 0.302
45 | CCC(=O)Nc1c(C)cc(C(=O)N2CCC(N(C)CCc3ccccc3)CC2)cc1C | inactive: -1.4 | inactive: 3.76 | active: 8.13
46 | O=C(O)c1ccccc1 | inactive: 0.0562 | inactive: -1.41 | inactive: 1.23
47 | CN(C)C(=O)CCSC(SCCC(=O)O)c1cccc(C=Cc2ccc3ccc(Cl)cc3n2)c1 (configuration not stated) | inactive: -0.513 | inactive: 0.869 | active: 5.11
48 | CC(=O)[C@H]1CCC2C3CC=C4C[C@@H](O)CC[C@]4(C)C3CC[C@@]21C (some centres not stated) [pregnenolone, Mattern] | inactive: 0.62 | inactive: -0.676 | inactive: 0.426
49 | O=C(O)C[C@@H]1NC(=O)CNC1=O | inactive: 0.434 | inactive: 1.53 | inactive: 0.21
50 | Cc1nc(-c2ccc(OCCCCCOc3ccc(/C(N)=N/O)cc3)cc2)c(C(C)C)s1 | inactive: -0.712 | inactive: 0.528 | inactive: -1.37
51 | Nc1ccc2c(c1)CN1C(=O)c3ccccc3C1=N2 | inactive: 0.0732 | inactive: -2.8 | inactive: -2.42
52 | CC(C)C(=O)NCCNCC(O)COc1ccccc1 (configuration not stated) | inactive: -2.01 | inactive: -0.724 | inactive: -0.208
53 | COc1cccc(/C=C/c2nc3sccn3c(=O)c2-c2ccc(OC(F)(F)F)cc2)c1OCC1CC1 | inactive: 0.0235 | inactive: -1.08 | inactive: -0.505
54 | OC[C@@]1(O)OC[C@@H](O)[C@@H](O)[C@@H]1O [Tagatose] | inactive: 0.318 | inactive: -2 | inactive: 0.634
55 | CC1=NN(c2ccccc2)C(=O)C1 |  | inactive: -1.58 | 
56 | CC1=NN(c2ccccc2)C(=O)C1 [edaravone] | inactive: -0.583 | inactive: 0.268 | inactive: 0.441
57 | O=C([O-])c1nc(=O)[nH]c(=O)[nH]1 [Oteracil potassium] | inactive: -0.221 |  | inactive: 0.711
58 | CCCCCCCCCCCCC(C#N)(CCCN(C)CCc1ccccc1)c1ccccc1 (configuration not stated) | inactive: 1.16 | inactive: -0.594 | inactive: -1.38
